# Test results taken from the supplement of paper PMC12819154, “High-throughput peptide-centric local stability assay extends protein–ligand identification to membrane proteins, tissues and bacteria” (Nature Structural & Molecular Biology, 2025).
# Amino acid sequences for entries named in this document (tags omitted). A change or cut given only in a name is not applied to a line headed by its entry.
# UniProt Q9Y294, whole entry: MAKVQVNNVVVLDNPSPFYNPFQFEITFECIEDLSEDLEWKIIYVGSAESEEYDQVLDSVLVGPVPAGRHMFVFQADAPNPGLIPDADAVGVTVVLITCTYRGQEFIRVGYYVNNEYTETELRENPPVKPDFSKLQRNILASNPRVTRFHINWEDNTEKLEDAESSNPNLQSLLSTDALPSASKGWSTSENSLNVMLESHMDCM
# UniProt Q9Y2U8: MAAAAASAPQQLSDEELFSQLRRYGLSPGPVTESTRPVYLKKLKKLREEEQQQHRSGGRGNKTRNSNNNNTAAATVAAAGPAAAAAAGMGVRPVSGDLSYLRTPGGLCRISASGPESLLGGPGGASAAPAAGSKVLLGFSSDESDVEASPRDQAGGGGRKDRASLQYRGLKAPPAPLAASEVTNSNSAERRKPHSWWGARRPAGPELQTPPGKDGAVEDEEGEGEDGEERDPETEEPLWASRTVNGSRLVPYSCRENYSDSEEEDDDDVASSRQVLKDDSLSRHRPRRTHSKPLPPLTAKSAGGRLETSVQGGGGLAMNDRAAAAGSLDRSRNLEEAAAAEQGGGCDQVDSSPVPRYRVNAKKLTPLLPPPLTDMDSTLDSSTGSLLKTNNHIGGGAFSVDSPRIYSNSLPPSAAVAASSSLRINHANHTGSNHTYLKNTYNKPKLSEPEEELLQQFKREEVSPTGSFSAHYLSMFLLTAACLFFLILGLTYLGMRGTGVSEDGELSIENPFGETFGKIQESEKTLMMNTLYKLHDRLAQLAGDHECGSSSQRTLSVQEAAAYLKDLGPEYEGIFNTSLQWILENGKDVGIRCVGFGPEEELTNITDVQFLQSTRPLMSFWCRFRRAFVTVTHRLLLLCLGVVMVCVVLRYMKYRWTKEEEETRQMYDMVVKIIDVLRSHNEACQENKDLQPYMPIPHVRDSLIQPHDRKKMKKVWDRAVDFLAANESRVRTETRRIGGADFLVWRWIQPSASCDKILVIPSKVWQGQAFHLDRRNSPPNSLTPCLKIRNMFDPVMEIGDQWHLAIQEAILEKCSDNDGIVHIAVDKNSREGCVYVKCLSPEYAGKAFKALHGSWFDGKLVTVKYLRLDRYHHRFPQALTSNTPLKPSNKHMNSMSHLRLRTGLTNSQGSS
# UniProt Q9ULQ0: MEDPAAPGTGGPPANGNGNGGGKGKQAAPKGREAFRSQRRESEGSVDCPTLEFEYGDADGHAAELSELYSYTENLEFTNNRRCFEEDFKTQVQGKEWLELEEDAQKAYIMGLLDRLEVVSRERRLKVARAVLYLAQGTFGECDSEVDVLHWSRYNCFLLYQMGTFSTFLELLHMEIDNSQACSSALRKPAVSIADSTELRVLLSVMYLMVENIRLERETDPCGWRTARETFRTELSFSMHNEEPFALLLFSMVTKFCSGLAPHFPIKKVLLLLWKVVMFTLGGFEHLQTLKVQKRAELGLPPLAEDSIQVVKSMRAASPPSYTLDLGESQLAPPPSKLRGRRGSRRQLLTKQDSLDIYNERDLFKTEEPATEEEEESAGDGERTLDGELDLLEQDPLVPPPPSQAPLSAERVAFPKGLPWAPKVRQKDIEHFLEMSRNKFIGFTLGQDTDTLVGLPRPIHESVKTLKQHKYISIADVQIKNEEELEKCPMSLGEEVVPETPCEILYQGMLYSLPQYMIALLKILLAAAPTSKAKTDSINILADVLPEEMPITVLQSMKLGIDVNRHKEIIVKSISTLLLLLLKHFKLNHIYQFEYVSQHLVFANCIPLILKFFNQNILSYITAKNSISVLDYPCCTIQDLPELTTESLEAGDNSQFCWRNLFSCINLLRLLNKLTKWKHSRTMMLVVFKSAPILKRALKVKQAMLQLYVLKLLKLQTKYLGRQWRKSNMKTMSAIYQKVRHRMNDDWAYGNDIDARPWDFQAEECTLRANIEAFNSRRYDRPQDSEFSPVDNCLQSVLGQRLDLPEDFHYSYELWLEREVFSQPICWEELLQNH
# UniProt Q9ULH0: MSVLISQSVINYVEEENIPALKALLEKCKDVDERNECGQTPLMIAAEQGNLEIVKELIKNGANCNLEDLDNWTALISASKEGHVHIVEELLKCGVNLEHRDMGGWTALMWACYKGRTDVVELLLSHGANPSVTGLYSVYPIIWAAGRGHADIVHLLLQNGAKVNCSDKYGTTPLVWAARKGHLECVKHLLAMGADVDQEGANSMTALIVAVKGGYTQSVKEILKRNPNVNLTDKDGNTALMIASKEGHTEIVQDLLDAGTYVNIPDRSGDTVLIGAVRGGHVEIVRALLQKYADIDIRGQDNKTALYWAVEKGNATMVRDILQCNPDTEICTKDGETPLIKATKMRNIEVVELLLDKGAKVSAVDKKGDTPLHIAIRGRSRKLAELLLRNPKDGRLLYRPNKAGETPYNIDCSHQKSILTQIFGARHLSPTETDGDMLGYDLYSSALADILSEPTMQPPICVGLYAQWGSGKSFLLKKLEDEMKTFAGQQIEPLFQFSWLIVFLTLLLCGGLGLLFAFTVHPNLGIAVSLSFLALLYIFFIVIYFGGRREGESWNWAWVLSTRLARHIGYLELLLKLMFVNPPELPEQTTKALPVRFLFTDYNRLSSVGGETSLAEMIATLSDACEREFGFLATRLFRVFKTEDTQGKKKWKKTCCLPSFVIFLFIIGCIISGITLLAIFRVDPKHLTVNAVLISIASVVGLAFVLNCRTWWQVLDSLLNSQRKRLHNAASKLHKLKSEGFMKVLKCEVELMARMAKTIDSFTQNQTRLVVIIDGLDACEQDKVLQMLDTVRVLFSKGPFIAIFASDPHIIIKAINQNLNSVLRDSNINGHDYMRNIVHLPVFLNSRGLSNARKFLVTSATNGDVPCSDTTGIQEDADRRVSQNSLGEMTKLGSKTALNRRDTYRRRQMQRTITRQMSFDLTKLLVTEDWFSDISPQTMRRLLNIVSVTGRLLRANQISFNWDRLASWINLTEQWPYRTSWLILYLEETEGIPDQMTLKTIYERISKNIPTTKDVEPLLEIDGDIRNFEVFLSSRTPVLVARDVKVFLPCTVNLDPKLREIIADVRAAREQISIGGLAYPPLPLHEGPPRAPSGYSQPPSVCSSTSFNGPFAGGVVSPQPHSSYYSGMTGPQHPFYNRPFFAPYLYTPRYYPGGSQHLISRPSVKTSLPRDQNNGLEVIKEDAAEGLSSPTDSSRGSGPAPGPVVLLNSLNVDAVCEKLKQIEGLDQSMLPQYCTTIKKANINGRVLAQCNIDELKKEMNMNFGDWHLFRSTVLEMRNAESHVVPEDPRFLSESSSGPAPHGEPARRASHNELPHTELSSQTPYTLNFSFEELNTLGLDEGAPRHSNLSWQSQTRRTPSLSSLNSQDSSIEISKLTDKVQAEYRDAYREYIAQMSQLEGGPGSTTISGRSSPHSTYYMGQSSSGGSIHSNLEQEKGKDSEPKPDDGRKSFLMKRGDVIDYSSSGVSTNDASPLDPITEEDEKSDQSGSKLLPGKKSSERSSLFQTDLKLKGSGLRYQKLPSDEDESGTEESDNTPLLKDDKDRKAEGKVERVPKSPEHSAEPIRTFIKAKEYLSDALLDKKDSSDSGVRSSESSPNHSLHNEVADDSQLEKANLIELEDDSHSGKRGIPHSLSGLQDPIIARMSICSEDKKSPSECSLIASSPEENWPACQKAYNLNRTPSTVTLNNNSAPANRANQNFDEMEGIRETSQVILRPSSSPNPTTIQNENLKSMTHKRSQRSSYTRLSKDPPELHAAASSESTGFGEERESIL
# UniProt Q9UL25: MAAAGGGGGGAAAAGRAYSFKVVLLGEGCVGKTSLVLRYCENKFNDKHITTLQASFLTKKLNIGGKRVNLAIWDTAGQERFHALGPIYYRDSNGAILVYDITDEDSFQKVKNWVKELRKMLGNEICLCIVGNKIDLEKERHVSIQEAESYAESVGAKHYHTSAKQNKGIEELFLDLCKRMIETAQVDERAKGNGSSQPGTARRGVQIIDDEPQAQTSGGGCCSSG
# UniProt Q9Y2S6, whole entry: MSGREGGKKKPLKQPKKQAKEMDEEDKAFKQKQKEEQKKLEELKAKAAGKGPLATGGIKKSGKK
# UniProt Q9Y375: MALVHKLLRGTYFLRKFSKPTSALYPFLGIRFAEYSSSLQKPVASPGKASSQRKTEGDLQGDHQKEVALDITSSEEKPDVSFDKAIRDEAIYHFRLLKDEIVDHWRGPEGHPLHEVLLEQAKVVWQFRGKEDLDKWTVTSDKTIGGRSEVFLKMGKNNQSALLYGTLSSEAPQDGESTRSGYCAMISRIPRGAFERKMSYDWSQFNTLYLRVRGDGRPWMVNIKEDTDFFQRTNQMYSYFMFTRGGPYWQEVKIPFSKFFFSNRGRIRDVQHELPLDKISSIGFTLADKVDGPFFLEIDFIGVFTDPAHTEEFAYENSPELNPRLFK
# The other results are listed elsewhere or left out. Small differences around the control level are noise.
# Compound: CN[C@@H]1C[C@H]2O[C@@](C)([C@@H]1OC)n1c3ccccc3c3c4c(c5c6ccccc6n2c5c31)C(=O)NC4 [staurosporine]
# Assay: log2 fold change of tryptic peptide abundance, ligand vs vehicle (limited proteolysis) (log2 ratio); higher = more trypsin-susceptible (destabilized)
# Settings: ligand concentration: 20 uM; sample: K562 cleared lysate; digestion: 4 min, 22 C (HT-PELSA RT4min, Orbitrap Astral)
row,Target,log2 fold change
1,"ASF1A (peptide sequence: NILASNPR, peptide start residue: 138) (UniProt Q9Y294)",0.0575
2,"LEMD3 (peptide sequence: LREEEQQQHR, peptide start residue: 46) (UniProt Q9Y2U8)",0.426
3,"STRIP2 (peptide sequence: QDSLDIYNER, peptide start residue: 352) (UniProt Q9ULQ0)",0.194
4,"KIDINS220 (peptide sequence: NIEVVELLLDKGAK, peptide start residue: 347) (UniProt Q9ULH0)",0.511
5,"RAB21 (peptide sequence: AKGNGSSQPGTAR, peptide start residue: 190) (UniProt Q9UL25)",-0.0279
6,"UniProt Q9Y2S6 (peptide sequence: AAGKGPLATGGIKK, peptide start residue: 47)",0.194
7,"NDUFAF1 (peptide sequence: LLKDEIVDHWR, peptide start residue: 96) (UniProt Q9Y375)",0.308
